No constants are given. Whether binding was seen depends on the method and setting.
Target: RABV phosphoprotein residues 1-68 with C-terminal His6 (P68−His6) (rabies virus (CVS-11 strain)) (UniProt P22363)
Assay: SEC-MALLS; both purified

Amino acid sequences for entries named in this document (tags omitted). Residues count along the entry.
UniProt P22363, residues 1-68: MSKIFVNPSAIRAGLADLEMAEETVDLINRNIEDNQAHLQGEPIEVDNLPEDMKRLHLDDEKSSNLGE

Q: Which binding does the source give for “RABV phosphoprotein residues 1-68 with C-terminal His6 (P68−His6) (from UniProt P22363 1-68) (peptide)” here?
A: no binding

— PMC9786881 (Viruses, 2022)
